In publication PMC11868365:
These are yes or no findings as the source states them, for the method shown. In cells and extracts the contact can be indirect.

By UniProt entry, the sequences of proteins in these tests, tags left out.
UniProt O60674: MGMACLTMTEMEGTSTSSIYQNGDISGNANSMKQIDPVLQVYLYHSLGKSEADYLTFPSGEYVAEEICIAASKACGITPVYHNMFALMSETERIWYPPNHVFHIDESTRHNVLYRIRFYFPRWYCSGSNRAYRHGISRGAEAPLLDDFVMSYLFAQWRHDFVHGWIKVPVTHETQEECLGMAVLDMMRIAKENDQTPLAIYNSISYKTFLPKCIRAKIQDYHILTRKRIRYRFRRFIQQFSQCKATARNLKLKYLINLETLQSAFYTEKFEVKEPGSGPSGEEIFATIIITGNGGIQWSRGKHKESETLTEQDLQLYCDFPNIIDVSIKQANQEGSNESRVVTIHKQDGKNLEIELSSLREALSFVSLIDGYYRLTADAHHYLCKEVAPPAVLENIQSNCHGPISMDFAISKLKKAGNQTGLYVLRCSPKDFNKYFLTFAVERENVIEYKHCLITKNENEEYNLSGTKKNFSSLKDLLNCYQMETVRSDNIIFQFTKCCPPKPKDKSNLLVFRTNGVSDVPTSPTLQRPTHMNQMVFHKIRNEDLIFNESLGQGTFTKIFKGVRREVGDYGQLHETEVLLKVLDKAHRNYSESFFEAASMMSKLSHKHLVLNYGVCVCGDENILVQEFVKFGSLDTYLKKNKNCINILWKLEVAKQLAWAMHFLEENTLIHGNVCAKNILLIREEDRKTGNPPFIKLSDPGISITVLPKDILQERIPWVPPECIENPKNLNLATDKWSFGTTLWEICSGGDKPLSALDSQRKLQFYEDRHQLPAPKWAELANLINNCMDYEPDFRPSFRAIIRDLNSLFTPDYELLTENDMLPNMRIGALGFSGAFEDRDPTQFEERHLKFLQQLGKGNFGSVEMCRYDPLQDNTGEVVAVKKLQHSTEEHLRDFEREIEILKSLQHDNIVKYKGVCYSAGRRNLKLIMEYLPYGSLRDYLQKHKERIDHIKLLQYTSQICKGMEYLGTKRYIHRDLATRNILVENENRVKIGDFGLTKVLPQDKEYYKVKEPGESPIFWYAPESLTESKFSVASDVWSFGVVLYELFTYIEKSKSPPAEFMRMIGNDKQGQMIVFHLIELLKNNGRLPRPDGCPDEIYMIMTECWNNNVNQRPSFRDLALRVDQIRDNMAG
UniProt P46937: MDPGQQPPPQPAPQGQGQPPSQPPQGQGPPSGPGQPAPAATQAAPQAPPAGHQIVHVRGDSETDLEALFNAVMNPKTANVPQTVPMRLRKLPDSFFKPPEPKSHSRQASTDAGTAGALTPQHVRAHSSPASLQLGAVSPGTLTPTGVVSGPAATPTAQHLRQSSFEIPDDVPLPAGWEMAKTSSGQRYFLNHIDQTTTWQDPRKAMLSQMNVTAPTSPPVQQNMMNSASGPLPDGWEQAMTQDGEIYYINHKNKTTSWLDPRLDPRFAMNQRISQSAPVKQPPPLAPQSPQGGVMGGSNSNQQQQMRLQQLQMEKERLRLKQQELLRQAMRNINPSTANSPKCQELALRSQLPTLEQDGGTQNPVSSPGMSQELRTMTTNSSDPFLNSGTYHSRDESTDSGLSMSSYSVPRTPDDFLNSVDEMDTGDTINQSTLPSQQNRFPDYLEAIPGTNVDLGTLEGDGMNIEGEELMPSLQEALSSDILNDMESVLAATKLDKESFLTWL

How the values were obtained:
[1] = target: JAK2 (human (endogenous in ZR75-1)) (UniProt O60674); test: co-IP; endogenous proteins in ZR75-1 cells; IP with anti-PTPRO, anti-JAK2 or anti-YAP antibodies
[2] = target: T1, PTPRO (human (endogenous in ZR75-1)) (UniProt Q16827); test: as above
T1 sequence: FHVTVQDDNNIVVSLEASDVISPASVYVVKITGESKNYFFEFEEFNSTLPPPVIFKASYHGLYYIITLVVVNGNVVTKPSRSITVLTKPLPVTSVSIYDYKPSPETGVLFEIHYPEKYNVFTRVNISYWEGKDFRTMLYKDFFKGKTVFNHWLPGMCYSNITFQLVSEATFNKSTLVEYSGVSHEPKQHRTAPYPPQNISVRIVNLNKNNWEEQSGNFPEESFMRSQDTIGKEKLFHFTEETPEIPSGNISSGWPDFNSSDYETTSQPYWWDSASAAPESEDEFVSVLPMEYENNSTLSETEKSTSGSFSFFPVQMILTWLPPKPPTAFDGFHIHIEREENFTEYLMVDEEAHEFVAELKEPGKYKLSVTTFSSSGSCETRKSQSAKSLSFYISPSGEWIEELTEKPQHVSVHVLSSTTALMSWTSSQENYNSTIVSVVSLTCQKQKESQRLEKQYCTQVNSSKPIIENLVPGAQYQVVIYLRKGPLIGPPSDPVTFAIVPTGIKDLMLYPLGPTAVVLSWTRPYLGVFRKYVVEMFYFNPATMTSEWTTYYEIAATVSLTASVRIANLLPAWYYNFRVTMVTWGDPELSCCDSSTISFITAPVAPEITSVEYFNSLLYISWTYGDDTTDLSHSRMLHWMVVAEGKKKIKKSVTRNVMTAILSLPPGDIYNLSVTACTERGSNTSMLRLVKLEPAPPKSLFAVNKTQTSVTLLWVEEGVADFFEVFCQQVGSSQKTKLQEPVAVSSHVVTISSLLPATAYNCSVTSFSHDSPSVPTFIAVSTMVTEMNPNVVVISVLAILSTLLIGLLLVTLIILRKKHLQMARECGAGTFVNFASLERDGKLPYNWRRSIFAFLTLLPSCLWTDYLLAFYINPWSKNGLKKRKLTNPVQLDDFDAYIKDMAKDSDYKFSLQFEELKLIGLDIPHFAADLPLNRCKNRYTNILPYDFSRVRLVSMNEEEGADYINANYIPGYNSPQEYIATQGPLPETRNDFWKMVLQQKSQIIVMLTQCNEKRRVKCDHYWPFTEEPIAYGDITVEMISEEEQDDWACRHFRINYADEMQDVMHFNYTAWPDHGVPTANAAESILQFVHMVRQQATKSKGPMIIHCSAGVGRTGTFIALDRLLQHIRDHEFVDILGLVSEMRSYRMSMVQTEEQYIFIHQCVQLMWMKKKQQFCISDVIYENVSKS

YES-associated protein (YAP) (from UniProt P46937 1-504)
binding [1]: no binding
binding [2]: no binding
